This note sets out measurements from paper PMC4022726.

The target of test [1] is NiV-F cytosolic tail (residues 519-546) (Nipah virus) (UniProt Q9IH63). The experiment in a line: two-hybrid.
Test [2] deals with NiV-G cytosolic tail (residues 1-45) (Nipah virus) (UniProt Q9IH62). The experiment in a line: two-hybrid.

These are yes or no findings as the source states them, for the method shown. Some results given as binding are weak or reduced against the parent protein; the word gives no strength. Sequences can lack the tags named with a protein.

B1: μ1B subunit of AP-1 (Gal4 activation domain fusion) (protein, UniProt Q9Y6Q5 1-423)
chain: MSASAVFILDVKGKPLISRNYKGDVAMSKIEHFMPLLVQREEEGALAPLLSHGQVHFLWIKHSNLYLVATTSKNANASLVYSFLYKTIEVFCEYFKELEEESIRDNFVIVYELLDELMDFGFPQTTDSKILQEYITQQSNKLETGKSRVPPTVTNAVSWRSEGIKYKKNEVFIDVIESVNLLVNANGSVLLSEIVGTIKLKVFLSGMPELRLGLNDRVLFELTGRSKNKSVELEDVKFHQCVRLSRFDNDRTISFIPPDGDFELMSYRLSTQVKPLIWIESVIEKFSHSRVEIMVKAKGQFKKQSVANGVEISVPVPSDADSPRFKTSVGSAKYVPERNVVIWSIKSFPGGKEYLMRAHFGLPSVEKEEVEGRPPIGVKFEIPYFTVSGIQVRYMKIIEKSGYQALPWVRYITQSGDYQLRTS
As to B1, the binding result is “binds” in test [1] and “no binding” in test [2].

B2: μ3A subunit of AP-3 (Gal4 activation domain fusion) (protein, UniProt P53676 1-418)
chain: MIHSLFLINCSGDIFLEKHWKSVVSQSVCDYFFEAQEKAADVENVPTVISTPHHYLISIYRDKLFFVSVIQTEVPPLFVIEFLHRVADTFQDYFGECSEAAIKDNVVIVYELLEEMLDNGFPLATESNILKELIKPPTILRSVVNSITGSSNVGDTLPTGQLSNIPWRRAGVKYTNNEAYFDVVEEIDAIIDKSGSTVFAEIQGVIDACIKLSGMPDLSLSFMNPRLLDDVSFHPCIRFKRWESERVLSFIPPDGNFRLISYRVSSQNLVAIPVYVKHNISFKENSSCGRFDITIGPKQNMGKTIEGITVTVHMPKVVLNMNLTPTQGSYTFDPVTKVLAWDVGKITPQKLPSLKGLVNLQSGAPKPEENPNLNIQFKIQQLAISGLKVNRLDMYGEKYKPFKGVKYITKAGKFQVRT
With B2, the binding result is “binds” in test [1] and “no binding” in test [2].

B3: μ4 subunit of AP-4 (Gal4 activation domain fusion) (protein, UniProt O00189 1-453)
chain: MISQFFILSSKGDPLIYKDFRGDSGGRDVAELFYRKLTGLPGDESPVVMHHHGRHFIHIRHSGLYLVVTTSENVSPFSLLELLSRLATLLGDYCGSLGEGTISRNVALVYELLDEVLDYGYVQTTSTEMLRNFIQTEAVVSKPFSLFDLSSVGLFGAETQQSKVAPSSAASRPVLSSRSDQSQKNEVFLDVVERLSVLIASNGSLLKVDVQGEIRLKSFLPSGSEMRIGLTEEFCVGKSELRGYGPGIRVDEVSFHSSVNLDEFESHRILRLQPPQGELTVMRYQLSDDLPSPLPFRLFPSVQWDRGSGRLQVYLKLRCDLLSKSQALNVRLHLPLPRGVVSLSQELSSPEQKAELAEGALRWDLPRVQGGSQLSGLFQMDVPGPPGPPSHGLSTSASPLGLGPASLSFELPRHTCSGLQVRFLRLAFRPCGNANPHKWVRHLSHSDAYVIRI
As for B3, the binding result in test [1] is recorded as “binds”; in test [2], “no binding”.
